The results in this text go back to publication PMC8002523.

The target in data set [1] is glycated human serum albumin (GHSA) (Homo sapiens) (UniProt P02768). The experiment in a line: fluorescence recovery from graphene oxide. Particulars: GHSA 0.0001-5 mg/mL, Binding buffer, aptamer stock 2.0 uM in sterile deionized water, ferricyanide redox probe, fluorescence ex 480 / em 520 nm, commercial protein, label: 5'-FAM (56-FAM), single-stranded DNA.
For data set [2] the target is unchanged. The data set is described as follows: electrochemical displacement from graphene oxide (SWV). Particulars: unlabeled aptamer, Binding buffer, aptamer stock 2.0 uM in sterile deionized water, ferricyanide redox probe, fluorescence ex 480 / em 520 nm, commercial protein, single-stranded DNA.

The exact form of at least one protein or probe is not confirmed.

In the case of “TGCGGTTCGTGCGGTTGTAGTAC [Modified G8-FAM]”, the binding result in data set [1] was “binds”.
As to TGCGGTTCGTGCGGTTGTAGTAC [Modified G8], in data set [2], the binding result was “binds”.
